No constants are given. Whether binding was seen depends on the method and setting. In cells and extracts the contact can be indirect. For part of these data: Binding calls can cover weak binding; strength is not graded here. Sequences can lack the tags named with a protein.
Key:
[1] = biological target: GFP-tagged rotavirus non-structural protein NSP4 (rotavirus, strain not stated); experiment: co-IP; HEK293 cells transfected, NP40 lysis buffer; anti-GFP antibody or mouse IgG1 isotype control on Dynabeads protein G, overnight at 4°C; immunoblot with anti-GFP and anti-FLAG or anti-SPCS1
[2] = biological target: GFP-tagged DS1-VP7 (human rotavirus DS1 strain (G2P[4])); experiment: as above

B1: C-terminally Flag-tagged SPCS1 (protein, UniProt Q9Y6A9 1-169)
chain: MARGGDTGCTGPSETSASGAAAIALPGLEGPATDAQCQTLPLTVLKSRSPSPRSLPPALSCPPPQPAMLEHLSSLPTQMDYKGQKLAEQMFQGIILFSAIVGFIYGYVAEQFGWTVYIVMAGFAFSCLLTLPPWPIYRRHPLKWLPVQESSTDDKKPGERKIKRHAKNN
**Q.** Which results are given for B1?
**A.** binding [1]: no binding; binding [2]: binds

B2: signal peptidase complex subunit 1 (protein, UniProt Q9Y6A9 1-169)
chain: B1 chain
**Q.** Which binding [2] does the source give for B2 here?
**A.** binds

From article PMC13043047
